# Percent effect of library compounds

Mtb cholesterol medium: 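Growth of Mycobacterium tuberculosis over 4 days (cholesterol / DPPC medium with tyloxapol); the read-out is not stated. Concentration: 50 µM. Higher reads as more growth inhibition (inferred: compounds with an IC50 in retests scored well above the rest). About 69,000 compounds were tested under these conditions; 0.54% (about 370) showed 50% or more at least once.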
Mtb glucose medium: 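Growth of Mycobacterium tuberculosis over 3 days (7H9 medium with glucose and tyloxapol); the read-out is not stated. Concentration: 50 µM. Higher reads as more growth inhibition (inferred: compounds with an IC50 in retests scored well above the rest). Of about 69,000 compounds tested this way, about 760 (1.1%) reached 50% or more in at least one test.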

Each number is a percent effect as filed.
The controls that fix the scale are not given in the record; negative values are as filed.
The compounds are a random part of those screened.
Two or more numbers in one place are separate tests of the same structure; such repeats can differ widely.

SMILES,Mtb cholesterol medium,Mtb glucose medium
COc1ccc(OC)c(CNCc2ccnc(N3CCOCC3)c2)c1,-19.46,-11.72 and -3.277
CNC(=O)COc1nc(C(C)(C)C)no1,-0.5458,-6.685 and 15.27
Cc1cnn(CC(=O)N2CCC3(CCC(=O)N(C4CCCC4)C3)CC2)c1,6.273,15.76
CC(C)(C(=O)NCc1ccc(C#N)cc1)n1cc(Br)cn1,-5.849,19.05
CNc1nccc(-c2cn(C)nc2C)n1,-5.165,-4.248
CN(CCCNC(=O)C1CCc2cn[nH]c2C1)c1ccccc1 (configuration not stated),10.74,6.904
O=C(O)C(F)(F)F.c1cncc(N2CCCn3nnc(COCC4CC4)c3C2)c1,9.84,-7.313
CC(C)c1nc(-c2cc(C(=O)NCCN(C)C)c3ccccn23)cs1.O=C(O)C(F)(F)F,28.78,47.92 and 33.64
Cn1ncc(N2CCC(CNC3Cc4ccccc4C3)C2)cc1=O (configuration not stated),-21.91,7.719
[H][C@@]12CCN(C(=O)CC(C)C)C[C@@]1([H])O[C@@H](c1nccs1)C2,-23.06,-19.84
CC(C)N(C)C(=O)C1=NOC2(CCN(C(=O)c3ccc(Cl)cc3)C2)C1 (configuration not stated),-16.44,-23.12
Cl.NCCC(=O)Nc1ccc(-c2ccccc2)cc1,7.163,9.25
O=C(O)C(F)(F)F.O=C(O)C(F)(F)F.[H][C@@]12CCN(Cc3ccccn3)[C@]1([H])CC[C@H](COCC(=O)N(C)C)O2,-3.995 and -0.1786,-9.776
CN(Cc1n[nH]c2c1CCCC2)c1nc2c(c(=O)[nH]1)CCNCC2,8.387,15.99
CCCn1cc(NC(=O)c2cccc(CN3CC[C@H](O)C3)c2)nn1,10.1,-9.665 and 7.434
[H][C@@]12CN(C(C)C)C[C@]1([H])N(Cc1ccccc1OC)C(=O)O2,-0.06853 and 2.865,3.187
O=C(c1nnn(-c2ccc(C(F)(F)F)cc2)n1)N1CCC(O)CC1,25.35,42.68 and 25.65
[H][C@@]12C[C@@H](C(=O)NCC3CC3)N(C)[C@]1([H])CN(Cc1cccnc1OC)C2,-2.304 and -1.105,7.774
Cc1csc(N2CCN(C(=O)c3ccc(C)s3)CC2)n1,22.86,76.71
O=C1Nc2ccccc2CNC12CCN(CC1CC1)CC2,3.1,7.748
COc1c(CNC2CCc3cc(F)ccc32)c(C)nn1C.Cl (configuration not stated),10.74,-0.2142
COc1ccc(S(=O)(=O)Nc2cccnc2-n2cncn2)c(C)c1,-4.303,-6.962 and -10.06
CN(CCCc1cnn(C)c1)C(=O)C1CCN(C(=O)C2CCC2)CC1,-3.358,4.634
CC(C(=O)Nc1ccc(N2CCCC2)nc1)n1cncn1 (configuration not stated),-7.92,-4.323
CNc1nc(CNC(=O)Nc2ccccc2SC)cs1,-5.658,-25.5
CNc1nc(CNC(=O)Nc2ccccc2-c2noc(C)n2)cs1,-7.019,-33.06
O=C(c1c(F)cccc1F)N1CCC[C@@H]1Cn1c(=O)oc2ccccc21,-2.478 and 5.251,18.62
CCOCCCNC(=O)C1(C)CCC(=O)N1c1ccccc1OC (configuration not stated),6.79,19.84
Cc1cnn(CC(C)Nc2nc3ccccc3o2)c1 (configuration not stated),5.821,0.1871
Cc1cc(NC(=O)Cc2ccccc2O)cnc1N1CCCCC1,9.649,31.43
O=C(c1cccc(NCc2cccc(F)c2)c1)N1CCC(O)CC1,2.565,41.52
CN1C(=O)C(C)(C)COc2cc(NS(=O)(=O)c3ccccc3)ccc21,-32.9,-2.593 and -7.232
CN(Cc1ccccc1)C1(C(=O)NC(CO)CO)Cc2ccccc2C1,-17.32,0.2315 and 26.26
O=C(O)C(F)(F)F.O=C(O)C(F)(F)F.[H][C@@]12C[C@@H](OCC)CN1CCN(Cc1ccc(C)o1)C2,-12.96,-13.47
Cc1cc(CN(C)C(=O)NC2CCN(Cc3ccccn3)CC2)no1,-0.4539,-5.988
Cc1noc(C)c1CCC(=O)N1CCn2cccc2C1C (configuration not stated),-22.3,1.714 and 59.61
CN(C)C1Cc2ccccc2N(S(=O)(=O)c2ccc(C#N)cc2)C1 (configuration not stated),9.867 and 3.845,-2.596
O=C(O)COc1ccccc1CN1CCCC1c1ccncn1 (configuration not stated),-5.821,4.694
COCCn1/c(=N\C(=O)CN(C)S(C)(=O)=O)sc2cc(C)ccc21,-1.371,-45.8
COc1cccc(NC(=O)NC(C)c2ccc3c(c2)CC(=O)N3)c1 (configuration not stated),2.501 and 0.2335,-11.76
COCCCNC(=O)COc1ccccc1C(F)(F)F,-5.418 and -6.603,-2.854
Cc1nc2n(n1)CC(NCc1nc(-c3cccnc3)no1)CC2 (configuration not stated),9.119,11.06
COc1ccccc1N(C)Cc1nc2c(cnn2C)c(=O)[nH]1,-25.46,-6.696
Cc1nc(CSCCC(=O)NCC(=O)NC(C)C)cs1,5.185,-8.475
COc1ccccc1NC(=O)NCc1nnc(SC)n1C,-4.837 and -1.378,-27.69
Cc1cnn(CCNCc2c(C)nn(Cc3ccccc3)c2C)c1,13.21,-7.06
CCSc1cc(C(=O)NCCc2nnc(-c3ccco3)[nH]2)ccn1,9.453 and -21.21,10.13
Cc1ncccc1C(=O)NCC(C)Oc1ccc(F)cc1 (configuration not stated),4.797,-16.28
CCOC(=O)C1CN(S(=O)(=O)C2CC2)Cc2ncn(CC)c21 (configuration not stated),-6.733,-10.19 and -16.13
CCOCCNC(=O)c1cc(Br)c2c(c1)OCCO2,-3.147,-5.309
Cc1nc(C)c(C(C)NCc2c(C)nn(C)c2N(C)C)s1 (configuration not stated),-1.004 and -5.453,19.03
CCOCC(=O)NC(C#N)c1cnn(-c2ccccc2)c1 (configuration not stated),-12.14,11.84
NC(=O)N1CCCC(c2nc(-c3cccnn3)no2)C1 (configuration not stated),-4.963,0.7175
CN(C)C(C(=O)NCCS(=O)(=O)N(C)C)c1cccc(F)c1 (configuration not stated),-5.758 and -4.081,-4.53
O=C(O)c1ccc(CNC(=O)C2CCN(Cc3ccco3)CC2)s1,-24.87,-26.61
CC(=O)Nc1sccc1C(=O)C(C)(C)C,-3.579,-6.026
Clc1ccccc1Cc1noc(CN2CCCC(CN3CCCC3)C2)n1 (configuration not stated),14.64,10.01
CCOc1ccc(Cl)c(C(=O)NC(C(N)=O)c2ccccc2)n1 (configuration not stated),-8.522,-6.389 and -3.695
c1cc(-c2cnc(NC3CC3)nc2[C@@H]2CCCO2)ccn1,-1.179,7.29
CC(C)NC[C@H]1COCc2nc3cccnc3n21,5.284,29.89 and 8.387
Cc1nc(N(C)C)ncc1C(=O)NCCc1csc(-c2ccncc2)n1,-5.32,4.152
O=C(O)C(F)(F)F.[H][C@@]12CCCO[C@]1([H])[C@@H](NC(=O)N(C)C)CN2C1CCOCC1,-10.28,-14.52 and -28.29
COc1ccc(C(C)NCc2cscn2)cc1Cn1cccn1 (configuration not stated),-5.774,-23.05
Cc1ccc(Cl)cc1C(=O)N1CCC2(CC1)c1ccccc1[C@@H](N)[C@@H]2O,-27.26,8.083
CCc1ncnc2c1CCN(Cc1ccc3c(c1)OCO3)CC2.O=C(O)C(F)(F)F,16.01,20.01
COC(=O)c1ccn(CC(=O)Nc2nn(CC3CC3)c3ccccc23)n1,21.86,42.85 and 12.74
COc1cccc([C@H]2CN(C(=O)c3noc4c3CCCC4)C[C@@H]2N)c1,-1.72,-32.39 and 7.671
CCN(CC1COc2ccccc2O1)C(=O)C1=NN(C)C(=O)CC1 (configuration not stated),-6.24,-1.168 and -4.016
Cn1nccc1C(=O)N1CCOC(Cc2ccc(F)cc2)C1 (configuration not stated),0.8345,18.59 and 0.07406
COc1ccc(C2CN(c3cc(C)ncn3)CCN2C(C)=O)cc1 (configuration not stated),-10.49 and -7.332,-7.704
COCCC(=O)N1CCN(CC2CC2)c2nc(C)ccc2C1.O=C(O)C(F)(F)F,-11.65,-56.66 and -10.28
COCCN1C2(CCN(CC3CC3)C2)c2ccccc2S1(=O)=O.O=C(O)C(F)(F)F (configuration not stated),-16.65,-20.66
COc1cccc2c1ccn2CC(=O)N1CCCC(C(=O)O)C1 (configuration not stated),-3.92,-42.32
O=C(c1cn(CC(=O)N2CCCCCC2)c2ccccc12)C1CC1,20.37,-2.929

Repeated from the top, 6 entries:

SMILES	Mtb cholesterol medium	Mtb glucose medium
COc1ccc(OC)c(CNCc2ccnc(N3CCOCC3)c2)c1	-19.46	-11.72 and -3.277
CNC(=O)COc1nc(C(C)(C)C)no1	-0.5458	-6.685 and 15.27
Cc1cnn(CC(=O)N2CCC3(CCC(=O)N(C4CCCC4)C3)CC2)c1	6.273	15.76
CC(C)(C(=O)NCc1ccc(C#N)cc1)n1cc(Br)cn1	-5.849	19.05
CNc1nccc(-c2cn(C)nc2C)n1	-5.165	-4.248
CN(CCCNC(=O)C1CCc2cn[nH]c2C1)c1ccccc1 (configuration not stated)	10.74	6.904

From ChEMBL document CHEMBL3988442, “University of Dundee, Small-Polar-MMV Screening Library” (2021).